Data from the supplement of paper PMC10849652.
Some of the results follow.

The chains behind the UniProt entries cited, without tags or fusion partners. Where a name states a change or a piece, a line headed by the entry shows the natural chain unless it says otherwise.
UniProt O15498: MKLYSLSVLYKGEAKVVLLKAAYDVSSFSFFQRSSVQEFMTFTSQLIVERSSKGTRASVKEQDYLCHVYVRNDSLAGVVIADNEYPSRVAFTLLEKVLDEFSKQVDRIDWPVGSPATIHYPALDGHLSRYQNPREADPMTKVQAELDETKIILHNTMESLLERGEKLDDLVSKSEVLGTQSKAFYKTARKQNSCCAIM
UniProt Q5BJH7: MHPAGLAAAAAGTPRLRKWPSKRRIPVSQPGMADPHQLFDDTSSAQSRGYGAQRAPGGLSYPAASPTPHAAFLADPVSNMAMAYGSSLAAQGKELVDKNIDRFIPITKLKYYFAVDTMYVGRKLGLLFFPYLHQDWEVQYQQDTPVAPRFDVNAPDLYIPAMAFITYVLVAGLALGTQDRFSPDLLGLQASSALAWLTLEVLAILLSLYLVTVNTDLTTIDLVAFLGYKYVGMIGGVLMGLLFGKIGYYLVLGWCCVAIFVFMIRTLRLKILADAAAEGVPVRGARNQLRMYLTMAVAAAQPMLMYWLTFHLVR
UniProt O95159: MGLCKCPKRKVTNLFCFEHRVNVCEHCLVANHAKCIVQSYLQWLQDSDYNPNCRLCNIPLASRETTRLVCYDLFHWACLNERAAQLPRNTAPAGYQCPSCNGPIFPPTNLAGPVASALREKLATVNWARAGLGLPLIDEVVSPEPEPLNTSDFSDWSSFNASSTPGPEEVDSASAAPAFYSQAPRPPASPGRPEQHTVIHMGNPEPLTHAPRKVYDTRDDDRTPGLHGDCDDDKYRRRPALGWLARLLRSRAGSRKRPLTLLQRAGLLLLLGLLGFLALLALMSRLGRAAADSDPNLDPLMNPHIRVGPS
UniProt Q9NP64: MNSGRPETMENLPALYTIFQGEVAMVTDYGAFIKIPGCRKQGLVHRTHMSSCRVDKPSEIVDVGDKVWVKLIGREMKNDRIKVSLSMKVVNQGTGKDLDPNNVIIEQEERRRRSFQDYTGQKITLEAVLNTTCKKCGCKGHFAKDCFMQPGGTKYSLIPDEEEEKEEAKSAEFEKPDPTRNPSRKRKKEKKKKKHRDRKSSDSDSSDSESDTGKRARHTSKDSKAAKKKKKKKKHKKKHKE
UniProt Q8N5P1: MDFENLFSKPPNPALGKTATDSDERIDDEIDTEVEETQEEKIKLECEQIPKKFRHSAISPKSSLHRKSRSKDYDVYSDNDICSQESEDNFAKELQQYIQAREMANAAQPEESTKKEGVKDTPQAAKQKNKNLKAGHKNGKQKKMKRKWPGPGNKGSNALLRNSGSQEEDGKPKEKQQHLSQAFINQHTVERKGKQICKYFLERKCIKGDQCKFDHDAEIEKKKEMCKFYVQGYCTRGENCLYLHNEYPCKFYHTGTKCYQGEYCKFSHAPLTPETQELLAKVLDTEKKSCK
UniProt Q7Z739: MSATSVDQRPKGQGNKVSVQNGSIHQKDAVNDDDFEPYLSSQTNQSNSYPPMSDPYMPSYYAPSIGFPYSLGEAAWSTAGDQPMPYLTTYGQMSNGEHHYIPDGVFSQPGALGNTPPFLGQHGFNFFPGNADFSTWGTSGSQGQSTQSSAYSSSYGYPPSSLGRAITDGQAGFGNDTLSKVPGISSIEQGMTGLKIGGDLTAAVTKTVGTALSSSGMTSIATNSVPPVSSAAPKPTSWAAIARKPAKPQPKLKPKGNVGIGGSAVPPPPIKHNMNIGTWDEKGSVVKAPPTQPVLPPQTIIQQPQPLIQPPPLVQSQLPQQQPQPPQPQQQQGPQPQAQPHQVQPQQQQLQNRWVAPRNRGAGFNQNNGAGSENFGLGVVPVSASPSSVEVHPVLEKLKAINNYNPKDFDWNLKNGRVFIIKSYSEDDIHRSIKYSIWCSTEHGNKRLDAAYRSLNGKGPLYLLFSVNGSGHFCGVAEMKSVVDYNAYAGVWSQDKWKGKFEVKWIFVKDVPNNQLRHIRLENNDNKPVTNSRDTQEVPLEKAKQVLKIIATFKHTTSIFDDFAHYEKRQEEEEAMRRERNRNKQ
UniProt Q7Z2W4: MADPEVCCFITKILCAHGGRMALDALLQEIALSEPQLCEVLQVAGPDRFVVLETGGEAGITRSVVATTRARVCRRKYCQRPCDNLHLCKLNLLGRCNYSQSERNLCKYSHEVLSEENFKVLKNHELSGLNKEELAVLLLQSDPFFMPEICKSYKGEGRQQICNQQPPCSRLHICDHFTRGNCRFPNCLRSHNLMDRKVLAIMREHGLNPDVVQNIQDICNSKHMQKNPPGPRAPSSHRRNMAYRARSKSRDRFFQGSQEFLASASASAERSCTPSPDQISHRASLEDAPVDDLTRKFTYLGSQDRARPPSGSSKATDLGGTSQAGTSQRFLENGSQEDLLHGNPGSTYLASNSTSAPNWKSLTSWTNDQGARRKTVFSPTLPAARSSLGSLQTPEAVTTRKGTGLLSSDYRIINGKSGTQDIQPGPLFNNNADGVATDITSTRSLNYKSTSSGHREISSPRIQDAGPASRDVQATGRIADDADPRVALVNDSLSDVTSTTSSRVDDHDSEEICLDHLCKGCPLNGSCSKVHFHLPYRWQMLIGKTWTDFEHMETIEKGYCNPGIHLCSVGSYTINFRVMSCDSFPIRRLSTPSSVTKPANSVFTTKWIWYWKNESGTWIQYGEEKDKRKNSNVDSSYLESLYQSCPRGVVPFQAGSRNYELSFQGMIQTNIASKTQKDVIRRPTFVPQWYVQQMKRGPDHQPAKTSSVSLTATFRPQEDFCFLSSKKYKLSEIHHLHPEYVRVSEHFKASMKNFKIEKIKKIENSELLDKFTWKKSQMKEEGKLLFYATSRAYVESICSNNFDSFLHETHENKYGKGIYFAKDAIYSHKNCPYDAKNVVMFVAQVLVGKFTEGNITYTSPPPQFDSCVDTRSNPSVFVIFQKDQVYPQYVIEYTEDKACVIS
UniProt Q9UBH6: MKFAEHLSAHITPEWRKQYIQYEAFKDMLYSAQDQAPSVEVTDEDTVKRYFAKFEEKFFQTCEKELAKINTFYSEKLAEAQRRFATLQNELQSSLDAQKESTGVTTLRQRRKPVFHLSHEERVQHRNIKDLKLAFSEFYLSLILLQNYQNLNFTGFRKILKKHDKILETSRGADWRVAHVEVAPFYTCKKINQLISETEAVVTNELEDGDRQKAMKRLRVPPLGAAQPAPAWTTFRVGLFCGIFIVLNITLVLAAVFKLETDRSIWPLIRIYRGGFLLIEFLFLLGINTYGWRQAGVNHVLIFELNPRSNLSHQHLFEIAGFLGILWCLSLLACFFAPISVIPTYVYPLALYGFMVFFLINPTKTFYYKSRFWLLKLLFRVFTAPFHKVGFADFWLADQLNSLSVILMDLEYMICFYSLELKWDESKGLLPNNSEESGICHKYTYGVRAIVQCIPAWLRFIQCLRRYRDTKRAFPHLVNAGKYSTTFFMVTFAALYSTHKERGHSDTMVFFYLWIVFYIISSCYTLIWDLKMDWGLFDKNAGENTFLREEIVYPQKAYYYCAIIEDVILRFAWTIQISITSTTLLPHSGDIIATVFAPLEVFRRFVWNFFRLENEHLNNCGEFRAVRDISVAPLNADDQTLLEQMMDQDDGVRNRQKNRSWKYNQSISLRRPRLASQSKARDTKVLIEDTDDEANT
UniProt P62699: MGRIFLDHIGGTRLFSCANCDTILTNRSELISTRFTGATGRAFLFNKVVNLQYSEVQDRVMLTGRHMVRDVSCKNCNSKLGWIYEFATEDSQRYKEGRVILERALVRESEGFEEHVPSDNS
UniProt O95619, whole entry, looked up: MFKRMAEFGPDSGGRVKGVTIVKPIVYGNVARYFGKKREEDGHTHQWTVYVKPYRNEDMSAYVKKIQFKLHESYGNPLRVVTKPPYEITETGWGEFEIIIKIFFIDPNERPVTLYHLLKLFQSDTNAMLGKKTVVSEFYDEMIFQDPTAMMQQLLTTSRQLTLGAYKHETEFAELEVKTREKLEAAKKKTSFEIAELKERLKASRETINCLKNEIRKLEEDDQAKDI
UniProt Q86U90: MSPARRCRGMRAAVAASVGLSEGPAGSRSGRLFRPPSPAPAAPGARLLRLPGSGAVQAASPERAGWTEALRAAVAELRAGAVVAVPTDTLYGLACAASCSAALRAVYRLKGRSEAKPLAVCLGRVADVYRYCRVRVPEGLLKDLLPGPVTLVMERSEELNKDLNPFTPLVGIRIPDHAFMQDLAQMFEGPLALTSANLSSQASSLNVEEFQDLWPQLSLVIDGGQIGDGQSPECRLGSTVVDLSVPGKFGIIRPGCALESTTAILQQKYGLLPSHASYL
UniProt Q9BYJ9: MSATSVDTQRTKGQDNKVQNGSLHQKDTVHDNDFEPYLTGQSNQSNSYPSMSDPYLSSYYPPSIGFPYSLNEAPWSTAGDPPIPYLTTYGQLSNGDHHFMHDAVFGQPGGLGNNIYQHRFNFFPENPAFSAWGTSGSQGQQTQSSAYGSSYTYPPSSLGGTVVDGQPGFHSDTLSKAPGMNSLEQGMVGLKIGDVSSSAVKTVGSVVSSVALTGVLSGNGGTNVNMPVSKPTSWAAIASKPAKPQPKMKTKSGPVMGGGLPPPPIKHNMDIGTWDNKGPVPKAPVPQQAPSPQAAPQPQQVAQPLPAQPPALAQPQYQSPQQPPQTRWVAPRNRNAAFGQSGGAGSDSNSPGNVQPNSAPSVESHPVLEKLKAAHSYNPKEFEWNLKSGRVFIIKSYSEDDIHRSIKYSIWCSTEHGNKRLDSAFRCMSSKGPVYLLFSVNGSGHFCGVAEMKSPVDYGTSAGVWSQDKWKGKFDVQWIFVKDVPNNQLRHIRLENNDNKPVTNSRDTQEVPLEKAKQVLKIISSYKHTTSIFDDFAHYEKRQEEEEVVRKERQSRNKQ
UniProt Q86WB0: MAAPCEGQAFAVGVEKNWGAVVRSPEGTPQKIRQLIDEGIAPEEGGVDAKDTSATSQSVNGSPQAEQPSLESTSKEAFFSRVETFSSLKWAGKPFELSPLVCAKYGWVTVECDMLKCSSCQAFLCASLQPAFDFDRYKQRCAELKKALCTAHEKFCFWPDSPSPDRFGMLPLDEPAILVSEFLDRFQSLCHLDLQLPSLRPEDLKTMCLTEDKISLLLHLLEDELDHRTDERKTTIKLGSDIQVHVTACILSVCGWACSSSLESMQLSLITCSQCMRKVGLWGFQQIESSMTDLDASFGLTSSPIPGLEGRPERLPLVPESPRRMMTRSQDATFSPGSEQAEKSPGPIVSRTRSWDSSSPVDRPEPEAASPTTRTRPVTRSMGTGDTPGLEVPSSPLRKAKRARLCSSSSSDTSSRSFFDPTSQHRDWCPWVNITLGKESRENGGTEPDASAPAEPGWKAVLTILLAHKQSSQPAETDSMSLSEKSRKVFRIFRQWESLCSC
UniProt Q96JP5: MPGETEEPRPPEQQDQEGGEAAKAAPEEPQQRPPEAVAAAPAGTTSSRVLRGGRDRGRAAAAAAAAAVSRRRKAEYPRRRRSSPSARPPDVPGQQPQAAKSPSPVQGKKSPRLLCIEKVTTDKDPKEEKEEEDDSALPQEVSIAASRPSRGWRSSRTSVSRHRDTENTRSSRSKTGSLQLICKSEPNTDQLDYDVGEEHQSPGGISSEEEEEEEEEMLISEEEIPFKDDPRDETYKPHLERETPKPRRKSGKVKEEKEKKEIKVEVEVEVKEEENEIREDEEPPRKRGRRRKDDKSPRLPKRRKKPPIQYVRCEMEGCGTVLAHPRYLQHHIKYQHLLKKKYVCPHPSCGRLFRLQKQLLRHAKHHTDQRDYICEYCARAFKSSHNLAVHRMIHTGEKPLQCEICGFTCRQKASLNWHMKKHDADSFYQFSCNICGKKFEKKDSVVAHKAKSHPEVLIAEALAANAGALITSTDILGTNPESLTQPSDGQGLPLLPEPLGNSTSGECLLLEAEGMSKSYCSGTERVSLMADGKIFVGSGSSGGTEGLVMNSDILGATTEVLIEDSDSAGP
UniProt P25490, whole entry, looked up: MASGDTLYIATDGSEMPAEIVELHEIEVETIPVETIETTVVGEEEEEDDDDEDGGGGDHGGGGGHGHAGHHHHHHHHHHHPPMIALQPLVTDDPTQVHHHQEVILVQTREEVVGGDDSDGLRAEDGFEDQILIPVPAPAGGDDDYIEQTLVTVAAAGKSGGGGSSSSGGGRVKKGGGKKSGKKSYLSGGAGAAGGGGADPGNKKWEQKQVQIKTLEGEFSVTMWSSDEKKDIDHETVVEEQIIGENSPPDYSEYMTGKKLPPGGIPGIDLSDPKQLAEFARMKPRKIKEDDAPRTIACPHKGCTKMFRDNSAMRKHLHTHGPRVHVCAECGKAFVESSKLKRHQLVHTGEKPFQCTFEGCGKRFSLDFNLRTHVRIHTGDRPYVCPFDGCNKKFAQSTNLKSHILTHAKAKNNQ
UniProt Q5VVQ6: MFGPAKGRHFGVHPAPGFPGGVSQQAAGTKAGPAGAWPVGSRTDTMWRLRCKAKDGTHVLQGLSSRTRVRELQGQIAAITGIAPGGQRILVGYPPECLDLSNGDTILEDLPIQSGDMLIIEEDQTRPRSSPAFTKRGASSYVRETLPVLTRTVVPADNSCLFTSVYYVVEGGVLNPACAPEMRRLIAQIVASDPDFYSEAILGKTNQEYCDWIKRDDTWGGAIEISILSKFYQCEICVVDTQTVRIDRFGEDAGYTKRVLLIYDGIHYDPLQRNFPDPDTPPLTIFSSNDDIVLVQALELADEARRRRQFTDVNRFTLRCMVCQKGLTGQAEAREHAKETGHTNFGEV

Experiments:
Experiment in all cases: log2 fold change, soluble protein after heating vs DMSO (PISA); higher = thermal stabilisation; K562 lysate, 10 uM; active = over 0.2 and 3.5 SD of the protein, either way, in both replicates (recomputed)
[1] = compound: Cc1cn(-c2cc(NC(=O)c3ccc(C)c(Nc4nccc(-c5cccnc5)n4)c3)cc(C(F)(F)F)c2)cn1 [nilotinib]
In short: (§1)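 Soluble protein was defined as the supernatant remaining after 21,000xg for 90 min, following pooling of heated aliquots and adjustment to 0.5% NP-40 at 4°C. Before that, crude K562 extract at 1 mg/mL protein in PBS pH 7.4 with 1 mM MgCl2 was treated with 10 μM compound for 30 min and heated for 3 min across 48°C-58°C. Quantification used TMTpro 16plex LC-MS/MS with channel sums equalised, and values are log-two fold changes in thermal stability relative to solvent controls from duplicates.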

[2] = compound: Cc1nc(Nc2n[nH]c3c2CN(C(=O)N[C@H](CN(C)C)c2ccccc2)C3(C)C)c2sccc2n1
In short: as §1

[3] = compound: Cc1nc(Nc2ncc(C(=O)Nc3c(C)cccc3Cl)s2)cc(N2CCN(CCO)CC2)n1 [dasatinib]
In short: as §1

[4] = compound: Cc1ncc(-c2ccnc(Nc3ccc(S(C)(=O)=O)cc3)n2)n1C(C)C
In short: as §1

[5] = compound: Cn1cc(-c2ccc3c(c2)CCN3C(=O)Cc2cccc(C(F)(F)F)c2)c2c(N)ncnc21
In short: as §1

[6] = compound: Cn1cc(CNCC2CCN(c3ncc(C(=O)NO)cn3)CC2)c2ccccc21 [quisinostat]
In short: as §1

[7] = compound: Cn1cncc1[C@@](N)(c1ccc(Cl)cc1)c1ccc2c(c1)c(-c1cccc(Cl)c1)cc(=O)n2C [tipifarnib]
In short: as §1

[8] = compound: NC(=O)Nc1cc(-c2cccc(F)c2)sc1C(=O)N[C@H]1CCCNC1
In short: as §1

[9] = compound: NC(=O)c1cnc(N[C@@H]2CCCC[C@@H]2N)nc1Nc1cccc(-n2nccn2)c1
In short: as §1

[10] = compound: NC1(c2ccc(-c3nc4ccn5c(=O)[nH]nc5c4cc3-c3ccccc3)cc2)CCC1
In short: as §1

[11] = compound: NCC(=O)Nc1ccc(-n2nc(C(F)(F)F)cc2-c2ccc3c(ccc4ccccc43)c2)cc1
In short: as §1

[12] = compound: O=C(CCCCCCC(=O)Nc1ccccc1)NO [vorinostat]
In short: as §1

[13] = compound: O=C(O)c1ccc2c(c1)nc(Nc1cccc(Cl)c1)c1ccncc12 [silmitasertib]
In short: as §1

[14] = compound: O=C1NC(=O)C(c2cnc3ccccn23)=C1c1cn2c3c(cc(F)cc13)CN(C(=O)N1CCCCC1)CC2
In short: as §1

[15] = compound: c1cn2cc(-c3ccc4cn[nH]c4c3)nc(Nc3ccc(N4CCOCC4)cc3)c2n1 [entospletinib]
In short: as §1

Target	log2 fold change [1]	log2 fold change [2]	log2 fold change [3]	log2 fold change [4]	log2 fold change [5]	log2 fold change [6]	log2 fold change [7]	log2 fold change [8]	log2 fold change [9]	log2 fold change [10]	log2 fold change [11]	log2 fold change [12]	log2 fold change [13]	log2 fold change [14]	log2 fold change [15]
YKT6 (UniProt O15498)	inactive: -0.003	inactive: 0.006	inactive: 0.027	inactive: -0.007	inactive: -0.002	inactive: 0.015	inactive: 0.007	inactive: -0.016	inactive: 0.006	inactive: 0.013	inactive: 0.001	inactive: 0.046	inactive: 0.009	inactive: -0.05	inactive: 0.008
YIF1B (UniProt Q5BJH7)	inactive: 0.062	inactive: -0.019	inactive: -0.013	inactive: -0.033	inactive: 0.002	inactive: 0.003	inactive: -0.054	inactive: -0.027	inactive: -0.031	inactive: -0.126	inactive: -0.007	inactive: 0.123	inactive: -0.004	inactive: -0.009	inactive: -0.018
ZFPL1 (UniProt O95159)	inactive: -0.072	inactive: 0.09	inactive: -0.032	inactive: 0.122	inactive: -0.085	inactive: 0.042	inactive: 0.095	inactive: 0.009	inactive: 0.273	inactive: 0.011	inactive: -0.056	inactive: 0.303	inactive: 0.043	inactive: 0.028	inactive: 0.001
ZBTB33 (UniProt Q86T24)	inactive: -0.009	inactive: 0.084	inactive: -0.06	inactive: -0.052	inactive: 0.029	inactive: -0.08	inactive: -0.083	inactive: 0.133	inactive: 0	inactive: -0.035	inactive: 0.061	inactive: 0.103	inactive: -0.082	inactive: 0.009	inactive: -0.033
ZCCHC17 (UniProt Q9NP64)	inactive: -0.042	inactive: -0.045	inactive: -0.444	inactive: 0.044	inactive: -0.151	inactive: 0.009	inactive: 0.059	inactive: -0.006	inactive: -0.051	inactive: 0.054	inactive: 0.001	inactive: -0.049	inactive: 0.044	inactive: 0.02	inactive: -0.1
ZC3H8 (UniProt Q8N5P1)	inactive: -0.022	inactive: 0.077	inactive: 0.026	inactive: -0.013	inactive: 0.034	inactive: -0.006	inactive: -0.007	inactive: -0.004	inactive: -0.023	inactive: 0.055	inactive: -0.018	inactive: -0.086	inactive: 0.052	inactive: -0.011	inactive: 0.015
YTHDF3 (UniProt Q7Z739)	inactive: -0.246	inactive: -0.038	inactive: 0.022	inactive: 0.014	inactive: -0.006	inactive: -0.06	inactive: -0.311	inactive: 0.063	inactive: -0.016	inactive: -0.039	inactive: 0.064	inactive: 0.03	inactive: -0.084	inactive: -0.169	inactive: 0.006
YWHAQ (UniProt P27348)	inactive: -0.008	inactive: -0.005	inactive: 0.04	inactive: 0.037	inactive: 0.011	inactive: 0.095	inactive: 0.019	inactive: -0.023	inactive: -0.035	inactive: 0.014	inactive: -0.047	inactive: -0.052	inactive: -0.012	inactive: 0.013	inactive: 0.022
ZC3HAV1 (UniProt Q7Z2W4)	inactive: -0.013	inactive: 0.024	inactive: -0.023	inactive: 0.028	inactive: 0.056	inactive: -0.003	inactive: -0.025	inactive: 0.043	inactive: -0.008	inactive: 0.014	inactive: 0.009	inactive: -0.111	inactive: 0.039	inactive: 0.018	inactive: 0.017
XPR1 (UniProt Q9UBH6)	inactive: 0.04	inactive: 0.019	inactive: 0.024	inactive: 0.01	inactive: 0.005	inactive: -0.023	inactive: -0.021	inactive: -0.034	inactive: -0.007	inactive: 0.079	inactive: 0.026	inactive: -0.076	inactive: -0.072	inactive: 0.031	inactive: 0.093
YPEL5 (UniProt P62699)	inactive: -0.082	inactive: 0.028	inactive: -0.081	inactive: -0.019	inactive: 0.003	inactive: -0.018	inactive: 0.049	inactive: 0.034	inactive: -0.004	inactive: 0.099	inactive: -0.04	inactive: -0.147	inactive: -0.055	inactive: -0.007	inactive: -0.039
YEATS4 (UniProt O95619)	inactive: 0.1	inactive: 0.154	inactive: 0.11	inactive: -0.196	inactive: 0.035	inactive: -0.038	inactive: 0.071	inactive: -0.011	inactive: 0.018	inactive: 0.044	inactive: 0.042	inactive: 0.057	inactive: -0.029	inactive: -0.046	inactive: -0.037
XPO5 (UniProt Q9HAV4)	inactive: -0.025	inactive: -0.016	inactive: -0.068	inactive: 0.013	inactive: 0.005	inactive: -0.092	inactive: -0.015	inactive: 0.029	inactive: 0.023	inactive: -0.024	inactive: 0	active: -0.574	inactive: 0.035	inactive: 0.011	inactive: 0.015
XPO6 (UniProt Q96QU8)	inactive: 0.005	inactive: 0.027	inactive: -0.008	inactive: -0.054	inactive: -0.026	inactive: -0.123	inactive: -0.018	inactive: 0.078	inactive: 0.033	inactive: -0.04	inactive: -0.034	active: -0.401	inactive: 0.049	inactive: -0.031	inactive: -0.027
YRDC (UniProt Q86U90)	inactive: 0	inactive: 0.021	inactive: 0.022	inactive: 0.018	inactive: -0.019	inactive: -0.019	inactive: 0.008	inactive: -0.004	inactive: 0.01	inactive: -0.003	inactive: 0.024	active: -0.424	inactive: 0.006	inactive: -0.017	inactive: -0.016
YTHDF1 (UniProt Q9BYJ9)	inactive: -0.218	inactive: 0.083	inactive: -0.073	inactive: 0	inactive: -0.068	inactive: -0.225	inactive: -0.136	inactive: 0.246	inactive: 0.008	inactive: 0.001	inactive: 0.104	inactive: -0.164	inactive: 0.044	inactive: 0.086	inactive: -0.057
ZC3HC1 (UniProt Q86WB0)	inactive: -0.013	inactive: -0.005	inactive: 0.029	inactive: 0.007	inactive: -0.009	inactive: -0.033	inactive: -0.03	inactive: 0.025	inactive: 0.017	inactive: 0.024	inactive: 0.021	active: -0.368	inactive: -0.034	inactive: -0.03	inactive: 0.01
ZGPAT (UniProt Q8N5A5)	inactive: -0.04	inactive: 0.028	inactive: 0.005	inactive: -0.019	inactive: 0.035	inactive: -0.035	inactive: 0.023	inactive: -0.034	inactive: 0.125	inactive: 0.016	inactive: -0.027	inactive: -0.191	inactive: 0.032	inactive: 0.08	inactive: -0.078
ZFP91 (UniProt Q96JP5)	inactive: -0.08	inactive: -0.004	inactive: 0.054	inactive: -0.014	inactive: -0.014	inactive: -0.002	inactive: -0.021	inactive: -0.023	inactive: 0.016	inactive: -0.042	inactive: 0.002	inactive: 0.049	inactive: 0.016	inactive: 0.073	inactive: 0.014
YY1 (UniProt P25490)	inactive: -0.032	inactive: 0.022	inactive: -0.055	inactive: -0.005	inactive: -0.018	inactive: 0.109	inactive: -0.01	inactive: -0.017	inactive: -0.021	inactive: 0.042	inactive: -0.065	inactive: 0.047	inactive: -0.001	inactive: -0.045	inactive: -0.022
YOD1 (UniProt Q5VVQ6)	inactive: 0	inactive: -0.024	inactive: -0.006	inactive: 0.031	inactive: 0	inactive: -0.018	inactive: 0.002	inactive: 0.055	inactive: 0.023	inactive: -0.019	inactive: -0.003	inactive: -0.003	inactive: 0.059	inactive: -0.043	inactive: -0.032

Single values from the results shown.
In log2 fold change [10], YTHDF3 (UniProt Q7Z739) reads inactive: -0.039
In log2 fold change [2], ZFP91 (UniProt Q96JP5) reads inactive: -0.004
